The values below come from PMC13415529.

Amino acid sequences for entries named in this document (tags omitted). A change or cut given only in a name is not applied to a line headed by its entry.
UniProt Q9H9Q4: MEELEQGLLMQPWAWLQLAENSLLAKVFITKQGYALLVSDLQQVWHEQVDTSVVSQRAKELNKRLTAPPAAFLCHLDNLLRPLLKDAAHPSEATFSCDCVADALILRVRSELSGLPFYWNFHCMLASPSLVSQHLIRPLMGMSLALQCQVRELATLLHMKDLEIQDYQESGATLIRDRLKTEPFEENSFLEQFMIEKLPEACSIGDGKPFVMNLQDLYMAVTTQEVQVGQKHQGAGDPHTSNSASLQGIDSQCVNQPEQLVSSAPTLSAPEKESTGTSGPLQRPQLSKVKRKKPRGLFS

The assay concerns the target GST-UFM1 (human (by the printed UniProt accession)) (UniProt P61960). Put plainly: pull-down; 3–5 µg GST-UFM1 on glutathione magnetic beads, overnight at 4 °C with extract of transfected HEK293T cells; washes NETN and PBS; immunoblot; only the target purified. (In western blotting, separated proteins are transferred to a membrane and probed.)

These are yes or no findings as the source states them, for the method shown. Binding seen in cells or lysates may run through a third protein. Binding can be weak; no strength is given.

With “XLF mutated in residues 199–207 (from UniProt Q9H9Q4)”, the binding entry is recorded as “binds”.
